Source: PubChem BioAssay AID248 (DTP/NCI, 2004)
The list is a part of this screen's results and no random one: it gathers tests that were run many times, whatever their T/C, doses with no T/C, and many T/C values between a quarter and a half above the control. Further doses and runs are listed elsewhere. T/C: endpoint of the treated group in % of that of the vehicle group. Some doses have a count of surviving animals in place of a T/C: the source holds a T/C of zero for them, seemingly a mark for toxic or unscored doses. Some survivor counts are full or nearly so, which does not show that the dose was tolerated: survival well below the control is almost never listed, so the zero probably covers shortened survival too. Survivors were counted at the toxicity check, usually on the fifth day, unless a day is given; later deaths do not show. Schedule codes are those of the source, read here as Q, the interval in days (D) or hours (H), X, the number of doses. Some schedules carry Z or #; the key to these is not given. Where survival is the endpoint, this PubChem deposit counts one and a half times the control or more as active, and values a quarter to a half above the control carry no call in these data; other NCI protocols may use other cut-offs. Some T/C values are followed by the survivors on the day toxicity was checked, most often the fifth; without a count, all were alive then.

Test system: L1210 leukemia ip in BDF1 mice, survival T/C
Experiment: NCI In Vivo Anticancer Drug Screen. Data for tumor model L1210 Leukemia (intraperitoneal) in B6D2F1 (BDF1) mice
Conditions: T/C endpoint: mean survival time, higher T/C = longer survival
[1] = dose: 300.0 mg/kg/injection, schedule: Q01DX001 (ip), vehicle: saline
[2] = dose: 400.0 mg/kg/injection, schedule: Q04DX003 (ip), vehicle: saline with Tween-80
[3] = dose: 400.0 mg/kg/injection, schedule: Q01DX001 (ip), vehicle: carboxymethylcellulose (CMC)

NC(C[Se][Se]CC(N)C(=O)O)C(=O)O (stereo not given)
survivor count (dose: 25.0 mg/kg/injection, schedule: Q04DX002 (ip), vehicle: saline): 0 of 3 | survivor count (dose: 50.0 mg/kg/injection, schedule: Q04DX002 (ip), vehicle: saline): 0 of 3

O=CN/N=C/c1ccc(Cl)cc1Cl
survivor count [1]: 0 of 6

Nc1nc(N)nc(N)n1 (tested in a mixture with another compound)
survivor count [2]: 2 of 3

Nc1nc(N)c2c(Cl)c(CNc3ccc(C(=O)NC(CC(=O)O)CC(=O)O)cc3)ccc2n1
T/C (dose: 6.25 mg/kg/injection, schedule: Q04DX003 (ip), vehicle: saline): 134 % of control [5 of 6 alive] | survivor count (dose: 100.0 mg/kg/injection, schedule: Q04DX003 (ip), vehicle: saline): 4 of 6 | survivor count (dose: 200.0 mg/kg/injection, schedule: Q04DX003 (ip), vehicle: saline): 3 of 6 | survivor count (dose: 400.0 mg/kg/injection, schedule: Q04DX003 (ip), vehicle: saline): 4 of 6

CC(O)C1CCN(Cc2ccccc2)CC1 (stereo not given)
survivor count [3]: 1 of 6

O=C(NO)Nc1ccccc1
survivor count (dose: 350.0 mg/kg/injection, schedule: Q01DX Z (ip), vehicle: methylcellulose (MC)): 2 of 6 | survivor count (dose: 500.0 mg/kg/injection, schedule: Q01DX Z (ip), vehicle: methylcellulose (MC)): 0 of 6

O=C(Nc1ccc(C2=NCCN2)c(O)c1)c1cccc(C(=O)Nc2ccc(C3=NCCN3)c(O)c2)c1
survivor count (dose: 125.0 mg/kg/injection, schedule: Q01DX Z (ip), vehicle: water): 0 of 6 | survivor count (dose: 250.0 mg/kg/injection, schedule: Q01DX Z (ip), vehicle: water): 0 of 6

Cc1c2[n+](cc3ccccc13)C(C)CC(=O)N2 (stereo not given)
survivor count [1]: 0 of 6

Clc1cccc(N=C/C=C/c2ccccc2)c1
survivor count (dose: 400.0 mg/kg/injection, schedule: Q01DX009 (ip), vehicle: carboxymethylcellulose (CMC)): 3 of 3

CNC(=O)C(c1ccccc1)C(O)c1ccccc1 (stereo not given)
survivor count (dose: 400.0 mg/kg/injection, schedule: Q01DX001 (ip), vehicle: saline): 1 of 4

[I][Hg][CH2]C1COCC([CH2][Hg][I])O1.[I][Hg][CH2]C1COCC([CH2][Hg][I])O1 (stereo not given)
survivor count (dose: 20.0 mg/kg/injection, schedule: Q01DX001 (ip), vehicle: carboxymethylcellulose (CMC)): 6 of 6 | survivor count (dose: 80.0 mg/kg/injection, schedule: Q04DX003 (ip), vehicle: carboxymethylcellulose (CMC)): 3 of 6 | survivor count (dose: 160.0 mg/kg/injection, schedule: Q01DX001 (ip), vehicle: carboxymethylcellulose (CMC)): 3 of 6

CCCCCCCCCCCCCCCC(=O)NCCO
survivor count (dose: 100.0 mg/kg/injection, schedule: Q04DX003 (ip), vehicle: Klucel (hydroxypropylcellulose) (HPC)): 6 of 6 | survivor count (dose: 400.0 mg/kg/injection, schedule: Q04DX003 (ip), vehicle: Klucel (hydroxypropylcellulose) (HPC)): 6 of 6

CSCCC(C)C
survivor count [2]: 0 of 6

CN=C(NC)c1ccc(NC(=O)CCc2ccc(C(=O)Nc3ccc(C(=NC)NC)cc3)cc2)cc1
T/C (dose: 5.25 mg/kg/injection, schedule: Q01DX Z (ip), vehicle: carboxymethylcellulose (CMC)): 135 % of control | T/C (dose: 21.0 mg/kg/injection, schedule: Q01DX Z (ip), vehicle: carboxymethylcellulose (CMC)): 144 % of control | survivor count (dose: 42.0 mg/kg/injection, schedule: Q01DX Z (ip), vehicle: carboxymethylcellulose (CMC)): 0 of 6

COc1ccc(C(C(C)=O)N2CCN(c3ccccc3)CC2)cc1 (stereo not given)
survivor count (dose: 400.0 mg/kg/injection, schedule: Q04DX003 (ip), vehicle: other): 2 of 6

Nc1c(F)c(F)c(N)c(F)c1F
survivor count (dose: 200.0 mg/kg/injection, schedule: Q01DX001 (ip), vehicle: acetone): 4 of 6

[Se]c1ncnc2nc[nH]c12
survivor count (dose: 100.0 mg/kg/injection, schedule: Q01DX001 (ip), vehicle: carboxymethylcellulose (CMC)): 3 of 6 | survivor count (dose: 200.0 mg/kg/injection, schedule: Q01DX001 (ip), vehicle: carboxymethylcellulose (CMC)): 0 of 6 | survivor count [3]: 0 of 6

Oc1ccc(O)c(-c2cc3c(O)ccc(O)c3[nH]2)c1
survivor count (dose: 50.0 mg/kg/injection, schedule: Q04DX002 (ip), vehicle: Klucel (hydroxypropylcellulose) (HPC)): 3 of 3 | survivor count (dose: 100.0 mg/kg/injection, schedule: Q04DX002 (ip), vehicle: Klucel (hydroxypropylcellulose) (HPC)): 3 of 3

CN(Cc1ccccc1)Cc1cc(CO)ccc1O
survivor count [3]: 0 of 4

CC12CCC(O)CC1CCC1C2CCC2(C)C1CC1NC12 (stereo not given)
survivor count (dose: 400.0 mg/kg/injection, schedule: Q01DX001 (sc), vehicle: steroid suspending solution): 3 of 6

CCC(C)NC1=CC(=O)c2ccccc2C1=O (stereo not given)
survivor count (dose: 400.0 mg/kg/injection, schedule: Q01DX001 (ip), vehicle: saline with Tween-80): 0 of 6
